Experimental data: EP2703005A1, “Inhibitors of alpha6 Integrin/E-Cadherin Complex” (Università Degli Studi Di Torino, priority 2012, dated 2014)
Results are given in words; binding and its absence hold for the method and conditions named. Binding seen in cells or lysates may run through a third protein. Some binding calls cover weakened binding; strength is not graded here. Where a sequence is shown, tags or fusion partners need not be part of it.

By UniProt entry, the sequences of proteins in these tests, tags left out. Residues count along the entry.
UniProt P07355, residues 2-339: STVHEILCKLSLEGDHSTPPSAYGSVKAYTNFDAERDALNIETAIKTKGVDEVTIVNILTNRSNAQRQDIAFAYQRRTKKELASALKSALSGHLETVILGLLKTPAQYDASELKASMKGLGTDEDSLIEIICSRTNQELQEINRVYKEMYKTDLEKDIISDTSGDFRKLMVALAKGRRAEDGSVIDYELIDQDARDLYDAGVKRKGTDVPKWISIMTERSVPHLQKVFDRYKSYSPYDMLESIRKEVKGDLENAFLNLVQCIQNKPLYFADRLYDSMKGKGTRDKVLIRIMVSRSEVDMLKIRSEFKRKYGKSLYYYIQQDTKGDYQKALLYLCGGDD
UniProt O43795: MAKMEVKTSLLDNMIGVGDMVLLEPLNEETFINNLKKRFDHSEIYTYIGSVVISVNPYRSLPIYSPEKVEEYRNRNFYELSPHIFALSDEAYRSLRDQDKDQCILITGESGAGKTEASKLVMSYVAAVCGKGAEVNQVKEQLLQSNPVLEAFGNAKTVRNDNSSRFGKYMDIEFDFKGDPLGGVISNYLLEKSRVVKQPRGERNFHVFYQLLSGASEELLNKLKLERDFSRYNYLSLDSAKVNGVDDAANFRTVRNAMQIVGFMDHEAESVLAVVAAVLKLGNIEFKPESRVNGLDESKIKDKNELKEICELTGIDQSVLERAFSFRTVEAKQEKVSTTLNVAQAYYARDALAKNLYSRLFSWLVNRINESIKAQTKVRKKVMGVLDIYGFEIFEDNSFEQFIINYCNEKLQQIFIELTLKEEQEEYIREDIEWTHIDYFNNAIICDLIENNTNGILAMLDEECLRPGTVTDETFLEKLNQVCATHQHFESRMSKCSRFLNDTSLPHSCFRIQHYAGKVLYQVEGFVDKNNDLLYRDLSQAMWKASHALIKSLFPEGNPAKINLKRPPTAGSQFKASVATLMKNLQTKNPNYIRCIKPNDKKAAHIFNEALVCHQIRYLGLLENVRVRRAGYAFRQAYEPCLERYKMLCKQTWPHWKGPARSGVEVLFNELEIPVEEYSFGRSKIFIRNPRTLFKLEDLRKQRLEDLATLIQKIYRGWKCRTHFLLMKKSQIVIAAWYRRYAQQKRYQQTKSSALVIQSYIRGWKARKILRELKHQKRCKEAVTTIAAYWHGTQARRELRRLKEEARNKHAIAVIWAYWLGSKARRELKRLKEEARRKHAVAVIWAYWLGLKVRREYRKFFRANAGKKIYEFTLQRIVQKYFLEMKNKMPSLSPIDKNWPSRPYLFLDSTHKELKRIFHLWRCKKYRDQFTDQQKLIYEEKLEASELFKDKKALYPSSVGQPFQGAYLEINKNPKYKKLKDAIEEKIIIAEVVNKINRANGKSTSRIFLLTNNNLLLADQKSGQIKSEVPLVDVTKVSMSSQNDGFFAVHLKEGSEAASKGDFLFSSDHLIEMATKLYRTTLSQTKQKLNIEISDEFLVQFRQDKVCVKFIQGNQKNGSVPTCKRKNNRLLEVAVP
UniProt P06753, residues 2-285: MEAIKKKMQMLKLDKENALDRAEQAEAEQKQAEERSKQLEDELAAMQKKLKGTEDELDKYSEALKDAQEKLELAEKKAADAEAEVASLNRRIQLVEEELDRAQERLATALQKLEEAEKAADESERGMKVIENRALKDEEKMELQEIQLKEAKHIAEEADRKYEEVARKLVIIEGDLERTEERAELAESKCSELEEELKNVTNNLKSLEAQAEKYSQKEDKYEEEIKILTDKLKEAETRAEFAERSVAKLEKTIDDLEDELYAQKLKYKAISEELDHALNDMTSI
UniProt P35579, residues 2-1960: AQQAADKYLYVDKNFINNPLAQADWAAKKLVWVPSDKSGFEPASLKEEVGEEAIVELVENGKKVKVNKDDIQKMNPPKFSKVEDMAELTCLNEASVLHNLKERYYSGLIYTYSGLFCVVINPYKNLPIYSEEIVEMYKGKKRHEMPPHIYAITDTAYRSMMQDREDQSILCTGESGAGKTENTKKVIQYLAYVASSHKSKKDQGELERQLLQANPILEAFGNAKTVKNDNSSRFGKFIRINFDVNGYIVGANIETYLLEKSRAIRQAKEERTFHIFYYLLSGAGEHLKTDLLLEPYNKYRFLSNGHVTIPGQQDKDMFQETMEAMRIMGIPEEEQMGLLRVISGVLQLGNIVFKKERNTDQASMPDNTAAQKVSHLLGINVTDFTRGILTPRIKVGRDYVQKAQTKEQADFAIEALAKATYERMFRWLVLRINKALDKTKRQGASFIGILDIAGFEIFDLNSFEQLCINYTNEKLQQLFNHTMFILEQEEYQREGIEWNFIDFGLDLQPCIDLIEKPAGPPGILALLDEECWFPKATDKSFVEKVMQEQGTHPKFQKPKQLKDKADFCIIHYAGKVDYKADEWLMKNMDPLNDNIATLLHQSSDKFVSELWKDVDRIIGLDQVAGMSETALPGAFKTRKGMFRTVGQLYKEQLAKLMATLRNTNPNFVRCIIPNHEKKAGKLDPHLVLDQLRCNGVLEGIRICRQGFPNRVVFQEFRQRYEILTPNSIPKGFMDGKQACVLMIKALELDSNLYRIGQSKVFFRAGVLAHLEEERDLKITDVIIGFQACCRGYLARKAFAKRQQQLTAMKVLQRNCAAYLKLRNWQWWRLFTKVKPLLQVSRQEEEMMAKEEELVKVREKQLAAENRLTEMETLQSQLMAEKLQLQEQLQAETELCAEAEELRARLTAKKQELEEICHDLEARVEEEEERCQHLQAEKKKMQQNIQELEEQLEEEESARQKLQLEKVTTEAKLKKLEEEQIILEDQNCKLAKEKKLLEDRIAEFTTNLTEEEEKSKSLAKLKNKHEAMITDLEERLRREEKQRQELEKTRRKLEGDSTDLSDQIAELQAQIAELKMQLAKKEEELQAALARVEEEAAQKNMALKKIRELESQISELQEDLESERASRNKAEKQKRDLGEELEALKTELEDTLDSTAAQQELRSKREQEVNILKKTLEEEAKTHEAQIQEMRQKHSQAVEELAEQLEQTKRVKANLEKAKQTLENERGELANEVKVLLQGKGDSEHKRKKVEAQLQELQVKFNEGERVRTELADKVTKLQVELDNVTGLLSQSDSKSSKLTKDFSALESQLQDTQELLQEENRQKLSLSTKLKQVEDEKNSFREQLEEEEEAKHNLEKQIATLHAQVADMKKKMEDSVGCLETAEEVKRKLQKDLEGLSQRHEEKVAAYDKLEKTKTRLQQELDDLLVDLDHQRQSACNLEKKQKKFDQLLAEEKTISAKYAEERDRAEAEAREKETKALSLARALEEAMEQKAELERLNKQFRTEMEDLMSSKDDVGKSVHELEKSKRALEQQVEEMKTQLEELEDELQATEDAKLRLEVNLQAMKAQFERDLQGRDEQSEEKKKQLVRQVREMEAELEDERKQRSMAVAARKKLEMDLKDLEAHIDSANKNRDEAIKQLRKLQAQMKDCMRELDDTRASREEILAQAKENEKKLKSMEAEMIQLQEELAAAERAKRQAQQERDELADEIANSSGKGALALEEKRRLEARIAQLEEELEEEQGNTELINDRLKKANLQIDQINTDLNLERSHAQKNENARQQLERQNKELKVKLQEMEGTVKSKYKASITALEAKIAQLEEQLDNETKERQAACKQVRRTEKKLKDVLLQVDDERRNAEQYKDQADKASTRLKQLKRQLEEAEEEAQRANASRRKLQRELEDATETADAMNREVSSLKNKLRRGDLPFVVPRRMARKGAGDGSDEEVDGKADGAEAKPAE
UniProt P09874, residues 2-1014: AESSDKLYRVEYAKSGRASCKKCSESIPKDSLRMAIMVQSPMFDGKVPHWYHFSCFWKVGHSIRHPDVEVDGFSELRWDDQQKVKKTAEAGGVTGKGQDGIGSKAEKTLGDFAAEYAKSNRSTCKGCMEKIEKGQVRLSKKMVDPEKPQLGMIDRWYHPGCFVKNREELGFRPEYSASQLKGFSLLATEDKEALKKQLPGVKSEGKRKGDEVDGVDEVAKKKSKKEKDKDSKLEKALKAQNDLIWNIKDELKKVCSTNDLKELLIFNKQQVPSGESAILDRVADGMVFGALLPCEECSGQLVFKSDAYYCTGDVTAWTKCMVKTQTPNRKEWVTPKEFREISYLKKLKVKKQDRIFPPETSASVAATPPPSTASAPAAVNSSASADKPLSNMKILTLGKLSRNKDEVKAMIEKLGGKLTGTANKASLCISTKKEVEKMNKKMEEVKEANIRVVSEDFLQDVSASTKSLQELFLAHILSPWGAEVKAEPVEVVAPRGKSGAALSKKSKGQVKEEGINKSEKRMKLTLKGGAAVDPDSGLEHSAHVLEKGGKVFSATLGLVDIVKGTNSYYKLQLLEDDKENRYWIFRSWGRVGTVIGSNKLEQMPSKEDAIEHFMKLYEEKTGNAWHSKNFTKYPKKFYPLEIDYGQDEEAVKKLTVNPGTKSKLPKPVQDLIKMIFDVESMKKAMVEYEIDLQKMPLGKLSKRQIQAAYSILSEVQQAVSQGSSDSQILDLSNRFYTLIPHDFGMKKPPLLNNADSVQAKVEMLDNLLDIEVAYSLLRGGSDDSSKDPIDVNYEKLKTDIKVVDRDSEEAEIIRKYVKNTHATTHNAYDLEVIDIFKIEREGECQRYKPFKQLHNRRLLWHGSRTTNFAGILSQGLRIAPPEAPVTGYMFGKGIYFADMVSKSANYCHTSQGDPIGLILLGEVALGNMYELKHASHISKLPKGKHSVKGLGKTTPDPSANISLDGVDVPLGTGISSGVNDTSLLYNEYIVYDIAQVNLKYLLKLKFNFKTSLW
UniProt P25705, residues 44-553: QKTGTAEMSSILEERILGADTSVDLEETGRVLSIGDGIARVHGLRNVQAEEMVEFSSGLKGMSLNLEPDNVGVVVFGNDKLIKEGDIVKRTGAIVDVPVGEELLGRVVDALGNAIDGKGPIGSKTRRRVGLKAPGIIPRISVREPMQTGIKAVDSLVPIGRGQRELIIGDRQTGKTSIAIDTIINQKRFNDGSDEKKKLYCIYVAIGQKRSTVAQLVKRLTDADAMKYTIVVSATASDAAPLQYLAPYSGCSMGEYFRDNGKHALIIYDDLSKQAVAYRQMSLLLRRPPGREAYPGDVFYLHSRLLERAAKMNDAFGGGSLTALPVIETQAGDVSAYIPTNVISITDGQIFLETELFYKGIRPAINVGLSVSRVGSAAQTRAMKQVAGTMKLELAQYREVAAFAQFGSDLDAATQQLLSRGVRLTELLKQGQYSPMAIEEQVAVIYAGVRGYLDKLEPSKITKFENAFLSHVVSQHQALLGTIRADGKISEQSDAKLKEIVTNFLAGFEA

How the values were obtained:
[1] = target: T1, microsomal dipeptidase (human) (UniProt P16444); assay: GST pull-down from NCI-H630 lysate (HepG2 lysate as control), LC-MS/MS; MASCOT score 117
T1 sequence (looked up): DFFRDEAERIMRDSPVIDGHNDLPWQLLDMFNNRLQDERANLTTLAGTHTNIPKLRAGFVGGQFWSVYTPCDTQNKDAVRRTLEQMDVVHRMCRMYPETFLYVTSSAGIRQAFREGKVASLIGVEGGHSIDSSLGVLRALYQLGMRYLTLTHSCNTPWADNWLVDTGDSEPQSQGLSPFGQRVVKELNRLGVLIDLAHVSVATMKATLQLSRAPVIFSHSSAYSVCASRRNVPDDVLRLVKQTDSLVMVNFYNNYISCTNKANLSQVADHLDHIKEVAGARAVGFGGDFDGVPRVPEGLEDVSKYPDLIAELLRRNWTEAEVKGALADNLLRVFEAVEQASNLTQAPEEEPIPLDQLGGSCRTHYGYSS

[2] = target: T2, galectin-4 (human) (UniProt P56470); assay: GST pull-down from NCI-H630 lysate (HepG2 lysate as control), LC-MS/MS; MASCOT score 75
T2 sequence (looked up): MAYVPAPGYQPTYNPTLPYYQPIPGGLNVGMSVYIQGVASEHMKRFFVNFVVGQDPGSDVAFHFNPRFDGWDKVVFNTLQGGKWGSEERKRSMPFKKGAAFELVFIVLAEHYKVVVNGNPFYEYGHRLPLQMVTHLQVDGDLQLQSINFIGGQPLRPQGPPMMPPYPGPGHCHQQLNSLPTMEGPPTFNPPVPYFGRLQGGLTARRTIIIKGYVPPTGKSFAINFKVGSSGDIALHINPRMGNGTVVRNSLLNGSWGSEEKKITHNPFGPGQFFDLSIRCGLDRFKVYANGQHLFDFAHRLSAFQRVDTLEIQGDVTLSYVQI

[3] = target: T3, cingulin (human) (UniProt Q9P2M7); assay: GST pull-down from NCI-H630 lysate (HepG2 lysate as control), LC-MS/MS; MASCOT score 224
T3 sequence (looked up): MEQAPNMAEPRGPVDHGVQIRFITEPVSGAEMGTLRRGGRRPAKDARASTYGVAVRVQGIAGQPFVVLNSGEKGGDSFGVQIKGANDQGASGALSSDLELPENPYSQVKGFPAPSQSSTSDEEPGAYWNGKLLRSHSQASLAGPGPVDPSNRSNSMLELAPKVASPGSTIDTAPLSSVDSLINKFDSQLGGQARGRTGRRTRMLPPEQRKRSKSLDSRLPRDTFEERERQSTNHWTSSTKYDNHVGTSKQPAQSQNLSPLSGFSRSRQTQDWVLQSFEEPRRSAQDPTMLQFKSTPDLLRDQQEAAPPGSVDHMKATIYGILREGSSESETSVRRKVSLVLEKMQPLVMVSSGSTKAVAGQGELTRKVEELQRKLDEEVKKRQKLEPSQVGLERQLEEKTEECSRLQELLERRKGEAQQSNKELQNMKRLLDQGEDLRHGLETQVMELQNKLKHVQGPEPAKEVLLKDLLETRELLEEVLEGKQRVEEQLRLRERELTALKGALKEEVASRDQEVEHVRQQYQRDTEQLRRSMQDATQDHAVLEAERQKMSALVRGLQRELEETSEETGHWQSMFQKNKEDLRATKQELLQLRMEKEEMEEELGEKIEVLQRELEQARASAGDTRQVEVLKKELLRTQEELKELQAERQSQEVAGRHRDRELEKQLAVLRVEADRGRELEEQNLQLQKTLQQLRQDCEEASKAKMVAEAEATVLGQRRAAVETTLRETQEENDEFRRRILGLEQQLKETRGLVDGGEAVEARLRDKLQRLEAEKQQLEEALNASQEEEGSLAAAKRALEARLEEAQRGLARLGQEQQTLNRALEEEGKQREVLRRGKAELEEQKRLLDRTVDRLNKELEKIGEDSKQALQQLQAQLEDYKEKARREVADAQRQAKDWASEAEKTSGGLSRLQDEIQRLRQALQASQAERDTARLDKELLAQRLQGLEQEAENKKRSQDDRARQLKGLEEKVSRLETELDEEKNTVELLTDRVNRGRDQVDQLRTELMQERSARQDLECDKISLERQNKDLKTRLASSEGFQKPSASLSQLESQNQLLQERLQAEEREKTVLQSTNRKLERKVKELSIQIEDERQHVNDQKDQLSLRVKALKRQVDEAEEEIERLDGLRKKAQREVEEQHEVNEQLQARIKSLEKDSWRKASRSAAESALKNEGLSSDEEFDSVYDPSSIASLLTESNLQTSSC

[4] = target: annexin A2 (human) (UniProt P07355); assay: GST pull-down from NCI-H630 lysate (HepG2 lysate as control), LC-MS/MS; MASCOT score 994
[5] = target: myosin Ib (Myosin Iα) (human) (UniProt O43795); assay: GST pull-down from NCI-H630 lysate (HepG2 lysate as control), LC-MS/MS; MASCOT score 1252
[6] = target: tropomyosin 3 (human) (UniProt P06753); assay: GST pull-down from NCI-H630 lysate (HepG2 lysate as control), LC-MS/MS; MASCOT score 420
[7] = target: myosin-9 (human) (UniProt P35579); assay: GST pull-down from NCI-H630 lysate (HepG2 lysate as control), LC-MS/MS; MASCOT score 4750
[8] = target: Spectrin alpha chain (human) (UniProt Q13813); assay: GST pull-down from NCI-H630 lysate (HepG2 lysate as control), LC-MS/MS; MASCOT score 790
[9] = target: poly[ADP-ribose]polymerase (human) (UniProt P09874); assay: GST pull-down from NCI-H630 lysate (HepG2 lysate as control), LC-MS/MS; MASCOT score 106
[10] = target: spectrin β chain (human) (UniProt Q01082); assay: GST pull-down from NCI-H630 lysate (HepG2 lysate as control), LC-MS/MS; MASCOT score 1989
[11] = target: ATP synthase α chain (human) (UniProt P25705); assay: GST pull-down from NCI-H630 lysate (HepG2 lysate as control), LC-MS/MS; MASCOT score 200

binding [1]: binds
binding [2]: binds
binding [3]: binds
binding [4]: binds
binding [5]: binds
binding [6]: binds
binding [7]: binds
binding [8]: binds
binding [9]: binds
binding [10]: binds
binding [11]: binds
Binder: CGIYRLRSC (peptide, not shown: a dimerising Fc or GST) […-GST]
